The supplement of paper PMC3334620
Whole data set: some 33,000 sequences, median “E-score (-0.5 to 0.5)” near -0.0059, cut for the highest 2% near 0.26. The list shows a part of the results.

What follows are sequences tested against T1, Cin5 (UniProt P40917) (assay: PBM E-score (8-mer binding enrichment) (E-score (-0.5 to 0.5)); higher = stronger / more preferred TF binding). Conditions: protein concentration: 100 nM; construct: GST-full length.
T1 sequence: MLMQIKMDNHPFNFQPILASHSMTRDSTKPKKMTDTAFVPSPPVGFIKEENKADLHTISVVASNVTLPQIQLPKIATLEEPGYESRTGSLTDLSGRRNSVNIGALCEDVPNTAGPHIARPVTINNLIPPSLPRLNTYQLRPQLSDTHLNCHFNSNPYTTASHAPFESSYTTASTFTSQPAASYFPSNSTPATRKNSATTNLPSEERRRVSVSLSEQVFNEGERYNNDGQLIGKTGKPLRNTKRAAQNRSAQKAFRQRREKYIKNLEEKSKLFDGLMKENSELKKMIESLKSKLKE
Summary of the method: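 Bound GST-tagged yeast transcription factors, applied at about 100-200 nM to double-stranded universal all-10-mer Agilent arrays, were detected with fluorescent anti-GST. Scans were normalised with masliner. A modified Wilcoxon-Mann-Whitney statistic, the E-score, was assigned to each ungapped eight-base word pooled with its reverse complement by the Universal PBM Analysis Suite.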
In the case of AAGAACCC, the “PBM E-score” value is reported as 0.00964.
AGGAACGG was tested, and the “PBM E-score” value was 0.00402.
In the case of CATAACAG, the “PBM E-score” value is reported as 0.0983.
In the case of CTTAAAGA, the “PBM E-score” value is reported as -0.141.
For CCCAAGCG, the “PBM E-score” value was 0.0138.
AACTTGTA was tested, and the “PBM E-score” value was 0.0012.
GCCCACCA was tested, and the “PBM E-score” value was -0.0969.
With ATTAACAC the “PBM E-score” value was 0.271.
With CTTTGGTA the “PBM E-score” value was -0.205.
With TGTTACAA the “PBM E-score” value was 0.146.
GTACTCGA was tested, and the “PBM E-score” value was 0.0237.
GAGATCTA was tested, and the “PBM E-score” value was -0.00668.
For CATATGAA, the “PBM E-score” value was 0.196.
With GTCCACGA the “PBM E-score” value was -0.185.
In the case of AGCTAATC, the “PBM E-score” value is reported as 0.208.
In the case of TAGCCAGA, the “PBM E-score” value is reported as -0.00108.
With GGAGCTAC the “PBM E-score” value was -0.236.
In the case of ACGCTCGC, the “PBM E-score” value is reported as -0.0869.
In the case of AGAGTCTG, the “PBM E-score” value is reported as -0.29.
In the case of AATTGTAA, the “PBM E-score” value is reported as 0.0199.
In the case of AGCCCAGC, the “PBM E-score” value is reported as -0.0958.
ACAGGGAA was tested, and the “PBM E-score” value was -0.146.
With AAGCTACA the “PBM E-score” value was 0.00755.
For CATCACGC, the “PBM E-score” value was -0.0568.
For ATGCTTAA, the “PBM E-score” value was 0.146.
For AAGATTAA, the “PBM E-score” value was 0.18.
GAAACCTA was tested, and the “PBM E-score” value was -0.126.
GACCCTTA was tested, and the “PBM E-score” value was -0.183.
With CATTCCTC the “PBM E-score” value was 0.036.
In the case of AAATGCGT, the “PBM E-score” value is reported as 0.0849.
In the case of AGCGGCCC, the “PBM E-score” value is reported as -0.315.
For TCATGTAA, the “PBM E-score” value was 0.146.
In the case of GAGTCTGA, the “PBM E-score” value is reported as -0.153.
CATAGACA was tested, and the “PBM E-score” value was -0.0153.
ATTTGTAC was tested, and the “PBM E-score” value was 0.075.
With CAAGCCTG the “PBM E-score” value was -0.105.
In the case of GCGTTCAC, the “PBM E-score” value is reported as -0.125.
In the case of ATGTTGCC, the “PBM E-score” value is reported as 0.0134.
For ACTACAGT, the “PBM E-score” value was 0.144.
In the case of ATAGAGGG, the “PBM E-score” value is reported as -0.0564.
ACTTCTCC was tested, and the “PBM E-score” value was -0.1.
For ATACCTAT, the “PBM E-score” value was 0.176.
For AATGCAAG, the “PBM E-score” value was 0.00342.
In the case of CGTCTCAC, the “PBM E-score” value is reported as -0.0428.
With CGAGAGAC the “PBM E-score” value was -0.0934.
In the case of CAATCCGC, the “PBM E-score” value is reported as 0.0427.
For ACTAAGAT, the “PBM E-score” value was 0.2.
With TGGTAAAA the “PBM E-score” value was 0.0376.
With GCGAGTGA the “PBM E-score” value was 0.0362.
For AACATCAA, the “PBM E-score” value was 0.205.
For CGTAGGTC, the “PBM E-score” value was -0.357.
With AATCACGC the “PBM E-score” value was 0.0577.
In the case of ATTGGGCG, the “PBM E-score” value is reported as -0.0699.
CTATTTAC was tested, and the “PBM E-score” value was 0.0754.
ATATATTG was tested, and the “PBM E-score” value was 0.088.
With GAGCTGAA the “PBM E-score” value was 0.0459.
For TATTGCGA, the “PBM E-score” value was 0.153.
CTGGTATA was tested, and the “PBM E-score” value was -0.0583.
In the case of TCCCGCCA, the “PBM E-score” value is reported as -0.00516.
In the case of GGCTTATA, the “PBM E-score” value is reported as 0.0974.
For ACCGAGTA, the “PBM E-score” value was 0.035.
For CACCCAGG, the “PBM E-score” value was -0.237.
In the case of CCACGGAG, the “PBM E-score” value is reported as 0.0418.
With AAGCTAAG the “PBM E-score” value was -0.164.
With TCCAAGAA the “PBM E-score” value was -0.0669.
TTCTCAAA was tested, and the “PBM E-score” value was 0.15.
CCAGTTTC was tested, and the “PBM E-score” value was 0.0406.
In the case of GGTCGTCA, the “PBM E-score” value is reported as -0.132.
With AACTACCA the “PBM E-score” value was 0.135.
With CACCACGG the “PBM E-score” value was -0.325.
For AAGCTTAA, the “PBM E-score” value was 0.164.
GCTCTGCA was tested, and the “PBM E-score” value was -0.237.
With CTAAACCC the “PBM E-score” value was -0.0573.
ATTTTGGG was tested, and the “PBM E-score” value was -0.0752.
In the case of CAAACTTA, the “PBM E-score” value is reported as 0.16.
With CACATACA the “PBM E-score” value was 9e-05.
In the case of CTAGATCC, the “PBM E-score” value is reported as -0.0524.
With CCTAAACC the “PBM E-score” value was -0.0859.
In the case of GCCTGTGA, the “PBM E-score” value is reported as -0.169.
GTCGTCAC was tested, and the “PBM E-score” value was -0.0939.
With ACGGTGAA the “PBM E-score” value was 0.0271.
For ATTATTAG, the “PBM E-score” value was 0.0574.
With GGTCTCAA the “PBM E-score” value was -0.227.
For CGACACAG, the “PBM E-score” value was 0.023.
In the case of AGCATGCT, the “PBM E-score” value is reported as -0.145.
CCCAACAA was tested, and the “PBM E-score” value was 0.0801.
With GTTGTTCA the “PBM E-score” value was -0.0621.
In the case of TAGTACTA, the “PBM E-score” value is reported as 0.132.
ACCGCCGG was tested, and the “PBM E-score” value was -0.113.
In the case of GAATTAAA, the “PBM E-score” value is reported as 0.0854.
CTACGTTA was tested, and the “PBM E-score” value was 0.0121.
In the case of ATTAGGTC, the “PBM E-score” value is reported as 0.271.
AGCACTTA was tested, and the “PBM E-score” value was 0.00228.
For CCGCGTTA, the “PBM E-score” value was 0.0622.
ATCCAGTG was tested, and the “PBM E-score” value was 0.131.
In the case of CTCCTGGA, the “PBM E-score” value is reported as -0.225.
For GCGCTCGA, the “PBM E-score” value was -0.059.
For TAATTCTA, the “PBM E-score” value was 0.0873.
With ACGTCGGG the “PBM E-score” value was -0.093.
GCCGGACA was tested, and the “PBM E-score” value was -0.0923.
In the case of GATTAGGA, the “PBM E-score” value is reported as 0.0316.
For CTCAGGAA, the “PBM E-score” value was -0.108.
AGTTTAAG was tested, and the “PBM E-score” value was -0.115.
For TTAAGCAA, the “PBM E-score” value was 0.0545.
In the case of CTGAGACA, the “PBM E-score” value is reported as -0.0351.
AGGAACCT was tested, and the “PBM E-score” value was 0.0492.
In the case of ATGTTATA, the “PBM E-score” value is reported as 0.0953.
ATAGGCAA was tested, and the “PBM E-score” value was 0.157.
For ACTCGCTC, the “PBM E-score” value was 0.0206.
With GACTGTGA the “PBM E-score” value was 0.0649.
AGCCCATA was tested, and the “PBM E-score” value was 0.146.
With GGCCGCCA the “PBM E-score” value was -0.203.
For CCATCTCC, the “PBM E-score” value was 0.0491.
AGCTCTTA was tested, and the “PBM E-score” value was 0.051.
For CTAGATGC, the “PBM E-score” value was 0.0126.
With AGGATTCC the “PBM E-score” value was -0.174.
For CGACTCGA, the “PBM E-score” value was -0.142.
For CGTCGGAA, the “PBM E-score” value was 0.0776.
With AAATGAAA the “PBM E-score” value was 0.266.
AGGCTTAA was tested, and the “PBM E-score” value was -0.00411.
With CTCCGAAA the “PBM E-score” value was -0.077.
In the case of CGCAAAGC, the “PBM E-score” value is reported as -0.0641.
ACGAGGGA was tested, and the “PBM E-score” value was -0.0525.
GAGATGGA was tested, and the “PBM E-score” value was -0.0265.
For CAAGAACA, the “PBM E-score” value was -0.0469.
For ATCTCCGC, the “PBM E-score” value was 0.0483.
With GGTATGTA the “PBM E-score” value was 0.0454.
In the case of CCACTTGC, the “PBM E-score” value is reported as 0.0354.
In the case of ACCCATCT, the “PBM E-score” value is reported as 0.058.
With CACACGTA the “PBM E-score” value was -0.0382.
CCGTTGCG was tested, and the “PBM E-score” value was -0.203.
In the case of CGGAGGGA, the “PBM E-score” value is reported as -0.265.
With GAGAAACA the “PBM E-score” value was 0.161.
With GAGTGTGA the “PBM E-score” value was 0.113.
GCAGCGGC was tested, and the “PBM E-score” value was -0.244.
With AAAGCCGC the “PBM E-score” value was -0.126.
CGGCCAAC was tested, and the “PBM E-score” value was -0.153.
In the case of ATCCCTAA, the “PBM E-score” value is reported as -0.19.
ACCGTCCT was tested, and the “PBM E-score” value was -0.165.
AGGTAGTG was tested, and the “PBM E-score” value was 0.0155.
With AAATTGGA the “PBM E-score” value was 0.202.
For ACCAGGTA, the “PBM E-score” value was -0.219.
With AACGATTG the “PBM E-score” value was 0.112.
For CCTTGGAG, the “PBM E-score” value was -0.14.
For ACGGTTAT, the “PBM E-score” value was 0.0536.
CAATGAGA was tested, and the “PBM E-score” value was -0.0591.
CGTGACCC was tested, and the “PBM E-score” value was -0.149.
AGTGGCCG was tested, and the “PBM E-score” value was -0.132.
In the case of CCCATCGC, the “PBM E-score” value is reported as 0.0166.
In the case of GTTTCTTA, the “PBM E-score” value is reported as 0.0414.
ATGTCGGA was tested, and the “PBM E-score” value was 0.00634.
For GAATTACA, the “PBM E-score” value was 0.0909.
For GCGGGAAA, the “PBM E-score” value was 0.037.
With CTCTCGCC the “PBM E-score” value was -0.222.
For GGCTGAAA, the “PBM E-score” value was 0.0499.
For AGATCGAA, the “PBM E-score” value was 0.229.
With TCTAGAGA the “PBM E-score” value was -0.228.
For CGTATTAG, the “PBM E-score” value was 0.109.
For ATTCATCC, the “PBM E-score” value was 0.127.
AAAAGGTT was tested, and the “PBM E-score” value was -0.0538.
For AGATAGTC, the “PBM E-score” value was -0.0838.
In the case of CCATAATA, the “PBM E-score” value is reported as 0.226.
In the case of CCCTGAGG, the “PBM E-score” value is reported as -0.206.
In the case of CAGTGATC, the “PBM E-score” value is reported as -0.0415.
In the case of GCCATCGC, the “PBM E-score” value is reported as -0.165.
In the case of ATGAGGAC, the “PBM E-score” value is reported as -0.096.
CGTTTGCC was tested, and the “PBM E-score” value was 0.059.
AGATAATG was tested, and the “PBM E-score” value was 0.177.
With CACGCCGG the “PBM E-score” value was -0.0549.
TGAAAAAA was tested, and the “PBM E-score” value was 0.2.
For ATTATTAA, the “PBM E-score” value was 0.316.
For ACAATCGA, the “PBM E-score” value was 0.0876.
